Source: publication PMC12065913
No constants are given. Whether binding was seen depends on the method and setting. Some entries that bind do so weakly or less than the wild type.

Amino acid sequences for entries named in this document (tags omitted).
UniProt P0A850: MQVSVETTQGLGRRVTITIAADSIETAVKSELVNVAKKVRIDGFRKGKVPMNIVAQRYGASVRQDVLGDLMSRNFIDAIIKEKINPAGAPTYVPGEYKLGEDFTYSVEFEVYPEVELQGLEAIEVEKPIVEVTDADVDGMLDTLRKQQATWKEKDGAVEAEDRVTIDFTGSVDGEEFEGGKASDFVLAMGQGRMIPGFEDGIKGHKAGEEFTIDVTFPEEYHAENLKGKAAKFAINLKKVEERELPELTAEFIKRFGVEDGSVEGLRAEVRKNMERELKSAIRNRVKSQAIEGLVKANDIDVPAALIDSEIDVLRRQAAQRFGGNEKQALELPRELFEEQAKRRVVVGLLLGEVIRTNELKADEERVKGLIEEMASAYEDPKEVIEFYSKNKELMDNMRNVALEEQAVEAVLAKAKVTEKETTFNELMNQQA
UniProt P0A6Y8: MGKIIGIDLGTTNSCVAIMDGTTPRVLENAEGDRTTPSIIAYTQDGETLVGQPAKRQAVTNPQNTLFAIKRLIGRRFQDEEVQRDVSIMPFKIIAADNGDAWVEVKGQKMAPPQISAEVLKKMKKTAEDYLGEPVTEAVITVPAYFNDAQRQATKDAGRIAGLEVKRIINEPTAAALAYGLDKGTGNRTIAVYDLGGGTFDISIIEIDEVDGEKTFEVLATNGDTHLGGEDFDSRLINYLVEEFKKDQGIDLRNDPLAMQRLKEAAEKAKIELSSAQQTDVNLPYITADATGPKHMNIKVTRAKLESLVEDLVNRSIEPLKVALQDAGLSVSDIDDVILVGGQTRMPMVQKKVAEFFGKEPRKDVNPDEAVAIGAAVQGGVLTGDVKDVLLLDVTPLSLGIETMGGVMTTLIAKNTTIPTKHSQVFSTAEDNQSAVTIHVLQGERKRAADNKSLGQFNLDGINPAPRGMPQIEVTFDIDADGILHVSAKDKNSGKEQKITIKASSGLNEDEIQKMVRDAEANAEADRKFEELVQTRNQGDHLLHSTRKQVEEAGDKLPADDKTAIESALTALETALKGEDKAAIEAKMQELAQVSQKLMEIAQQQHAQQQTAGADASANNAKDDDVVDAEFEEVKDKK
UniProt P0A6F5: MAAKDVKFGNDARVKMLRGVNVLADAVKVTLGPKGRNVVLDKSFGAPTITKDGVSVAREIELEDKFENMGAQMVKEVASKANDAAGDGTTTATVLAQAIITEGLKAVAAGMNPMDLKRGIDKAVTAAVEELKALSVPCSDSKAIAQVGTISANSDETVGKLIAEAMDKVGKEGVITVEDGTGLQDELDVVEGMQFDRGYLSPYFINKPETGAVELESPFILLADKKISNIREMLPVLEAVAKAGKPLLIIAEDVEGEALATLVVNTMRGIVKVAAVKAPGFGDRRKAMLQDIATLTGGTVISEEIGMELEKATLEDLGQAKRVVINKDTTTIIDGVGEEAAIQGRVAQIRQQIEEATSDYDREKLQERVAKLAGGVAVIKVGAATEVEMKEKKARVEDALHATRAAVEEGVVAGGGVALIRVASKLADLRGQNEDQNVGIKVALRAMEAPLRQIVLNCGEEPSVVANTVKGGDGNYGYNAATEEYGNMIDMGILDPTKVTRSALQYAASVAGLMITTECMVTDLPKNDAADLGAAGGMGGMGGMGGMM

B1: nascent OppA (protein, UniProt P23843 27-543)
chain: ADVPAGVTLAEKQTLVRNNGSEVQSLDPHKIEGVPESNISRDLFEGLLVSDLDGHPAPGVAESWDNKDAKVWTFHLRKDAKWSDGTPVTAQDFVYSWQRSVDPNTASPYASYLQYGHIAGIDEILEGKKPITDLGVKAIDDHTLEVTLSEPVPYFYKLLVHPSTSPVPKAAIEKFGEKWTQPGNIVTNGAYTLKDWVVNERIVLERSPTYWNNAKTVINQVTYLPIASEVTDVNRYRSGEIDMTNNSMPIELFQKLKKEIPDEVHVDPYLCTYYYEINNQKPPFNDVRVRTALKLGMDRDIIVNKVKAQGNMPAYGYTPPYTDGAKLTQPEWFGWSQEKRNEEAKKLLAEAGYTADKPLTINLLYNTSDLHKKLAIAASSLWKKNIGVNVKLVNQEWKTFLDTRHQGTFDVARAGWCADYNEPTSFLNTMLSNSSMNTAHYKSPAFDSIMAETLKVTDEAQRTALYTKAEQQLDKDSAIVPVYYYVNARLVKPWVGGYTGKDPLDNTYTRNMYIVKH
B2: nascent LolA (protein, UniProt P61316 22-203)
chain: DAASDLKSRLDKVSSFHASFTQKVTDGSGAAVQEGQGDLWVKRPNLFNWHMTQPDESILVSDGKTLWFYNPFVEQATATWLKDATGNTPFMLIARNQSSDWQQYNIKQNGDDFVLTPKASNGNLKQFTINVGRDGTIHQFSAVEQDDQRSSYQLKSQQNGAVDAAKFTFTPPQGVTVDDQRK
B3: nascent BarA (protein, UniProt P0AEC5 1-918)
chain: MTNYSLRARMMILILAPTVLIGLLLSIFFVVHRYNDLQRQLEDAGASIIEPLAVSTEYGMSLQNRESIGQLISVLHRRHSDIVRAISVYDENNRLFVTSNFHLDPSSMQLGSNVPFPRQLTVTRDGDIMILRTPIISESYSPDESPSSDAKNSQNMLGYIALELDLKSVRLQQYKEIFISSVMMLFCIGIALIFGWRLMRDVTGPIRNMVNTVDRIRRGQLDSRVEGFMLGELDMLKNGINSMAMSLAAYHEEMQHNIDQATSDLRETLEQMEIQNVELDLAKKRAQEAARIKSEFLANMSHELRTPLNGVIGFTRLTLKTELTPTQRDHLNTIERSANNLLAIINDVLDFSKLEAGKLILESIPFPLRSTLDEVVTLLAHSSHDKGLELTLNIKSDVPDNVIGDPLRLQQIITNLVGNAIKFTENGNIDILVEKRALSNTKVQIEVQIRDTGIGIPERDQSRLFQAFRQADASISRRHGGTGLGLVITQKLVNEMGGDISFHSQPNRGSTFWFHINLDLNPNIIIEGPSTQCLAGKRLAYVEPNSAAAQCTLDILSETPLEVVYSPTFSALPPAHYDMMLLGIAVTFREPLTMQHERLAKAVSMTDFLMLALPCHAQVNAEKLKQDGIGACLLKPLTPTRLLPALTEFCHHKQNTLLPVTDESKLAMTVMAVDDNPANLKLIGALLEDMVQHVELCDSGHQAVERAKQMPFDLILMDIQMPDMDGIRACELIHQLPHQQQTPVIAVTAHAMAGQKEKLLGAGMSDYLAKPIEEERLHNLLLRYKPGSGISSRVVTPEVNEIVVNPNATLDWQLALRQAAGKTDLARDMLQMLLDFLPEVRNKVEEQLVGENPEGLVDLIHKLHGSCGYSGVPRMKNLCQLIEQQLRSGTKEEDLEPELLELLDEMDNVAREASKILG
B4: nascent AspC (protein, UniProt P00509 1-396)
chain: MFENITAAPADPILGLADLFRADERPGKINLGIGVYKDETGKTPVLTSVKKAEQYLLENETTKNYLGIDGIPEFGRCTQELLFGKGSALINDKRARTAQTPGGTGALRVAADFLAKNTSVKRVWVSNPSWPNHKSVFNSAGLEVREYAYYDAENHTLDFDALINSLNEAQAGDVVLFHGCCHNPTGIDPTLEQWQTLAQLSVEKGWLPLFDFAYQGFARGLEEDAEGLRAFAAMHKELIVASSYSKNFGLYNERVGACTLVAADSETVDRAFSQMKAAIRANYSNPPAHGASVVATILSNDALRAIWEQELTDMRQRIQRMRQLFVNTLQEKGANRDFSFIIKQNGMFSFSGLTKEQVLRLREEFGVYAVASGRVNVAGMTPDNMAPLCEAIVAVL
B5: nascent DeoC (protein, UniProt P0A6L0 1-259)
chain: MTDLKASSLRALKLMDLTTLNDDDTDEKVIALCHQAKTPVGNTAAICIYPRFIPIARKTLKEQGTPEIRIATVTNFPHGNDDIDIALAETRAAIAYGADEVDVVFPYRALMAGNEQVGFDLVKACKEACAAANVLLKVIIETGELKDEALIRKASEISIKAGADFIKTSTGKVAVNATPESARIMMEVIRDMGVEKTVGFKPAGGVRTAEDAQKYLAIADELFGADWADARHYRFGASSLLASLLKALGHGDGKSASSY
B6: nascent FtsK (protein, UniProt P46889 1-1329)
chain: MSQEYIEDKEVTLTKLSSGRRLLEALLILIVLFAVWLMAALLSFNPSDPSWSQTAWHEPIHNLGGMPGAWLADTLFFIFGVMAYTIPVIIVGGCWFAWRHQSSDEYIDYFAVSLRIIGVLALILTSCGLAAINADDIWYFASGGVIGSLLSTTLQPLLHSSGGTIALLCVWAAGLTLFTGWSWVTIAEKLGGWILNILTFASNRTRRDDTWVDEDEYEDDEEYEDENHGKQHESRRARILRGALARRKRLAEKFINPMGRQTDAALFSGKRMDDDEEITYTARGVAADPDDVLFSGNRATQPEYDEYDPLLNGAPITEPVAVAAAATTATQSWAAPVEPVTQTPPVASVDVPPAQPTVAWQPVPGPQTGEPVIAPAPEGYPQQSQYAQPAVQYNEPLQQPVQPQQPYYAPAAEQPAQQPYYAPAPEQPVAGNAWQAEEQQSTFAPQSTYQTEQTYQQPAAQEPLYQQPQPVEQQPVVEPEPVVEETKPARPPLYYFEEVEEKRAREREQLAAWYQPIPEPVKEPEPIKSSLKAPSVAAVPPVEAAAAVSPLASGVKKATLATGAAATVAAPVFSLANSGGPRPQVKEGIGPQLPRPKRIRVPTRRELASYGIKLPSQRAAEEKAREAQRNQYDSGDQYNDDEIDAMQQDELARQFAQTQQQRYGEQYQHDVPVNAEDADAAAEAELARQFAQTQQQRYSGEQPAGANPFSLDDFEFSPMKALLDDGPHEPLFTPIVEPVQQPQQPVAPQQQYQQPQQPVPPQPQYQQPQQPVAPQPQYQQPQQPVAPQQQYQQPQQPVAPQQQYQQPQQPVAPQPQDTLLHPLLMRNGDSRPLHKPTTPLPSLDLLTPPPSEVEPVDTFALEQMARLVEARLADFRIKADVVNYSPGPVITRFELNLAPGVKAARISNLSRDLARSLSTVAVRVVEVIPGKPYVGLELPNKKRQTVYLREVLDNAKFRDNPSPLTVVLGKDIAGEPVVADLAKMPHLLVAGTTGSGKSVGVNAMILSMLYKAQPEDVRFIMIDPKMLELSVYEGIPHLLTEVVTDMKDAANALRWCVNEMERRYKLMSALGVRNLAGYNEKIAEADRMMRPIPDPYWKPGDSMDAQHPVLKKEPYIVVLVDEFADLMMTVGKKVEELIARLAQKARAAGIHLVLATQRPSVDVITGLIKANIPTRIAFTVSSKIDSRTILDQAGAESLLGMGDMLYSGPNSTLPVRVHGAFVRDQEVHAVVQDWKARGRPQYVDGITSDSESEGGAGGFDGAEELDPLFDQAVQFVTEKRKASISGVQRQFRIGYNRAARIIEQMEAQGIVSEQGHNGNREVLAPPPFD

Legend:
Trigger Factor (E. coli) = Trigger Factor (E. coli) (UniProt P0A850); assay: selective ribosome profiling (affinity purification of chaperone-bound ribosome-nascent chain complexes, sequencing of the mRNA footprints); TF-TEV-Avi affinity purified from lysate of Δtig::tig-TEV-Avi cells, no chemical cross-linking; selected translatome normalised by the total …
[1] = target: DnaK (E. coli (endogenous in E. coli cells)) (UniProt P0A6Y8); assay: selective ribosome profiling (SeRP); immunoprecipitation of DnaK (anti-DnaK antibody on Dynabeads) with ribosome-nascent chain complexes; ATP depleted with hexokinase; MNase digest, sucrose cushion; ribosome footprints sequenced
[2] = target: GroEL (E. coli (endogenous in MC4100)) (UniProt P0A6F5); assay: selective ribosome profiling (immunoprecipitation of chaperone-bound ribosome-nascent chain complexes, sequencing of the mRNA footprints); GroEL immunoprecipitated with anti-GroEL antibody from ATP-depleted lysate cross-linked with 60 mM EDC; WT, Δtig and ΔdnaK strain backgrounds; selected translatome normalised by the total translatome
[3] = target: Trigger Factor (tig-TEV-Avi) (E. coli) (UniProt P0A850); assay: selective ribosome profiling (SeRP); affinity purification of TF-TEV-Avi with ribosome-nascent chain complexes from E. coli lysate, no chemical cross-linking; ribosome footprints sequenced, enrichment over the total translatome

| Binder | binding (Trigger Factor (E. coli)) | binding [1] | binding [2] | binding [3] |
| --- | --- | --- | --- | --- |
| B1 | binds |  |  |  |
| B2 | binds |  |  |  |
| B3 |  | binds | binds |  |
| B4 |  | binds |  | binds |
| B5 |  | binds |  | binds |
| B6 |  | binds |  |  |
